In the supplement of paper PMC10849652:
Some of the results follow.

Amino acid sequences for entries named in this document (tags omitted). A change or cut given only in a name is not applied to a line headed by its entry.
UniProt P07992: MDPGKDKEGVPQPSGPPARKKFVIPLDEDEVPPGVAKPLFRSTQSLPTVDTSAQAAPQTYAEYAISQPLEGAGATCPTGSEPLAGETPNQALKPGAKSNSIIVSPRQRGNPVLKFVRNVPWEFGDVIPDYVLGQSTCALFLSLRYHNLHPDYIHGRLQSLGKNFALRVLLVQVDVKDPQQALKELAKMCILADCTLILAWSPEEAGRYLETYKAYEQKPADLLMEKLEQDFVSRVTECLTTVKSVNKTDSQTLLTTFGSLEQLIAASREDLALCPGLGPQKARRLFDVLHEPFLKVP
UniProt P84090, whole entry, looked up: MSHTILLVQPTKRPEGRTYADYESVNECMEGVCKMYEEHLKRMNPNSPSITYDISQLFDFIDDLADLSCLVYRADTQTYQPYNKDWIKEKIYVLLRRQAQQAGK
UniProt Q2NKX8: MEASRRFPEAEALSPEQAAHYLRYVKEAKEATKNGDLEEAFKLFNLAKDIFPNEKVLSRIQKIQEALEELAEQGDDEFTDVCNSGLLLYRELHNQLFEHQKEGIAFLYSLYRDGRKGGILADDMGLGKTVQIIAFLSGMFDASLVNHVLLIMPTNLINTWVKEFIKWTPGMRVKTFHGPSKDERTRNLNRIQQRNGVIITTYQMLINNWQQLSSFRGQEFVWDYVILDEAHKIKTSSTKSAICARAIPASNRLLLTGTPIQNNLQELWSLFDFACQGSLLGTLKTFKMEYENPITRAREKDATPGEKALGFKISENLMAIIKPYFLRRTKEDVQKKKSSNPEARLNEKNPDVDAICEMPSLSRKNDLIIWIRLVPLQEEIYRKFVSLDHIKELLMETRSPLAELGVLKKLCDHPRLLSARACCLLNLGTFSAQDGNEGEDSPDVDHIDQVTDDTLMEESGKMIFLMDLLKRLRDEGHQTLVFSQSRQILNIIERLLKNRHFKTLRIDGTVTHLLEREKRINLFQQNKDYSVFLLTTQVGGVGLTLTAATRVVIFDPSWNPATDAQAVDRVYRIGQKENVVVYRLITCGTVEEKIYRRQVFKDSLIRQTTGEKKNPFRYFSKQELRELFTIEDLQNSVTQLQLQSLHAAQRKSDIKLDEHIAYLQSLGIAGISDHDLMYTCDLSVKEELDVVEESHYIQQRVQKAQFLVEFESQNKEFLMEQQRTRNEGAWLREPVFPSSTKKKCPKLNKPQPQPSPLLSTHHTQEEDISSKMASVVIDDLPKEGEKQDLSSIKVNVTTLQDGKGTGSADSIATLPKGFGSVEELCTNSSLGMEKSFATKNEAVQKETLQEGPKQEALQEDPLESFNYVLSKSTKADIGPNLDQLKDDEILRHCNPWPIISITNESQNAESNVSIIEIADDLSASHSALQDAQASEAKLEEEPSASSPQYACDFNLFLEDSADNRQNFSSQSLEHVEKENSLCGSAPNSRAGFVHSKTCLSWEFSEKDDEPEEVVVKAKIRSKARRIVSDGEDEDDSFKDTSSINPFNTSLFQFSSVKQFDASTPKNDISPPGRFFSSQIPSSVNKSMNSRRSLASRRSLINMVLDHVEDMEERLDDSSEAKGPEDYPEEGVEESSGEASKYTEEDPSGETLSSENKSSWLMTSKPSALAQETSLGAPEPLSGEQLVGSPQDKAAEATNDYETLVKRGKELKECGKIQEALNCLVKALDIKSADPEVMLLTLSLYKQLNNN
UniProt Q9Y6I3: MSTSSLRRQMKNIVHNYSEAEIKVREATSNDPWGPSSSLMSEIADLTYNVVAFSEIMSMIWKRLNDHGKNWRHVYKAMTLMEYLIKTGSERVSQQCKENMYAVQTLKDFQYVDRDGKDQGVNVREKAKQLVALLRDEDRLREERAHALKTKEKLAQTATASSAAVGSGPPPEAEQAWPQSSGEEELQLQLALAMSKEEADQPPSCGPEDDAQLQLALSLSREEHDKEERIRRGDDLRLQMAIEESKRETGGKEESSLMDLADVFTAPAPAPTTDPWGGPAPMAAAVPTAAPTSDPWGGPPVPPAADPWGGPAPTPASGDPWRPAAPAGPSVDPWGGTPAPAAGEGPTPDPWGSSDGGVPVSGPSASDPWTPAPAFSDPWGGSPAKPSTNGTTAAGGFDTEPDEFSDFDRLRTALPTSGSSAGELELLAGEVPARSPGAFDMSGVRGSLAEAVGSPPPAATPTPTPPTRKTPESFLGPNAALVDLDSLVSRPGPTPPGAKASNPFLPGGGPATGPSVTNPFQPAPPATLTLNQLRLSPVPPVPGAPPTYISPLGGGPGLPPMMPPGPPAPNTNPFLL
UniProt Q7Z309: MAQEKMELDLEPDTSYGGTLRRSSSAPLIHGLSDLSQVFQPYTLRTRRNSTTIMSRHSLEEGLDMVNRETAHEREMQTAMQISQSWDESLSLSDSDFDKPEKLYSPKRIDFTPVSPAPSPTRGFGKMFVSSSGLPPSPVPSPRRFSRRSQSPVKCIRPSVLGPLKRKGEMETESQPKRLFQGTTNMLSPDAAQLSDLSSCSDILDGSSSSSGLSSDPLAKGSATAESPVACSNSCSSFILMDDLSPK
UniProt Q9H2F5, whole entry, looked up: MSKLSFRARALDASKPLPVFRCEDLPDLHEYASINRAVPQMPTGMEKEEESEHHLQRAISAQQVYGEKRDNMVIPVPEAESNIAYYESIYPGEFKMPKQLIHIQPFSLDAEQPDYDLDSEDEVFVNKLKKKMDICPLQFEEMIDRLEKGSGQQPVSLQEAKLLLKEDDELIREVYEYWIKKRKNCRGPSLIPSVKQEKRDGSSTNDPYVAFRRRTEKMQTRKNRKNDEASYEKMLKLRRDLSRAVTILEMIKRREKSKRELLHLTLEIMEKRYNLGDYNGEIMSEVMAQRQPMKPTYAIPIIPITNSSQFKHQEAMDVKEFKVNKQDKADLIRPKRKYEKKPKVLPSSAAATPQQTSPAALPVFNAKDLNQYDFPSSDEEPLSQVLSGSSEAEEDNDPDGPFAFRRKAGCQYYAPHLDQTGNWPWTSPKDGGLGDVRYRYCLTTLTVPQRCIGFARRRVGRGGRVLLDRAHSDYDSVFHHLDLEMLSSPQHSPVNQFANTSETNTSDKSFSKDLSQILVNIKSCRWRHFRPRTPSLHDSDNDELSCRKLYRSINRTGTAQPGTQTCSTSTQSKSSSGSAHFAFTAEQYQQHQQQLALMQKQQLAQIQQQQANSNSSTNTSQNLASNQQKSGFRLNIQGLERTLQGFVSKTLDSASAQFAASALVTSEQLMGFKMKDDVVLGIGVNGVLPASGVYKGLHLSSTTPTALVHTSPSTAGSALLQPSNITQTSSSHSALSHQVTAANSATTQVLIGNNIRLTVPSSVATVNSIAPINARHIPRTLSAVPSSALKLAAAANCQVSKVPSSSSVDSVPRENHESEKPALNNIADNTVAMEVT
UniProt Q9NVM1: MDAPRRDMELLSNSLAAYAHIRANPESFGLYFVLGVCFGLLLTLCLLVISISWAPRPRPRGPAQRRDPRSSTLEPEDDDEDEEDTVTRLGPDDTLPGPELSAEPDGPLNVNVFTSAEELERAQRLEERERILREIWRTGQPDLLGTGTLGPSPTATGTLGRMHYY
UniProt Q8TBP5: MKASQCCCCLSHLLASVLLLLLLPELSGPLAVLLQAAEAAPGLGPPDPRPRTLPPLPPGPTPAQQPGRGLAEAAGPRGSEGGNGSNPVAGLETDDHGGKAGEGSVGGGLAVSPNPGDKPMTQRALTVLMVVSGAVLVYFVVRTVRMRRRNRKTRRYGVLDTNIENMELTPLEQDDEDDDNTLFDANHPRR
UniProt O95864: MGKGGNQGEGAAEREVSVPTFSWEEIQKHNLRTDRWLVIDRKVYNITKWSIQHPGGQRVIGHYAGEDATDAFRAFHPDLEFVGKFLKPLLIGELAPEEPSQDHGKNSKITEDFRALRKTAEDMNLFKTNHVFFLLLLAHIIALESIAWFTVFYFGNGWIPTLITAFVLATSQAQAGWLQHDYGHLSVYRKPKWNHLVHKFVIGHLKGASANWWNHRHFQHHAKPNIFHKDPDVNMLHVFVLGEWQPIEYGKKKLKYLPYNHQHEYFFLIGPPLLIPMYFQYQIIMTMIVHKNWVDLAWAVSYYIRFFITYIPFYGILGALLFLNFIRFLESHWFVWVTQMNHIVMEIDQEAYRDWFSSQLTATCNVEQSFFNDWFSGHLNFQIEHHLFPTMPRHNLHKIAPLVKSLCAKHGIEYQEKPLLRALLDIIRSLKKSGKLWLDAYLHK
UniProt P00488: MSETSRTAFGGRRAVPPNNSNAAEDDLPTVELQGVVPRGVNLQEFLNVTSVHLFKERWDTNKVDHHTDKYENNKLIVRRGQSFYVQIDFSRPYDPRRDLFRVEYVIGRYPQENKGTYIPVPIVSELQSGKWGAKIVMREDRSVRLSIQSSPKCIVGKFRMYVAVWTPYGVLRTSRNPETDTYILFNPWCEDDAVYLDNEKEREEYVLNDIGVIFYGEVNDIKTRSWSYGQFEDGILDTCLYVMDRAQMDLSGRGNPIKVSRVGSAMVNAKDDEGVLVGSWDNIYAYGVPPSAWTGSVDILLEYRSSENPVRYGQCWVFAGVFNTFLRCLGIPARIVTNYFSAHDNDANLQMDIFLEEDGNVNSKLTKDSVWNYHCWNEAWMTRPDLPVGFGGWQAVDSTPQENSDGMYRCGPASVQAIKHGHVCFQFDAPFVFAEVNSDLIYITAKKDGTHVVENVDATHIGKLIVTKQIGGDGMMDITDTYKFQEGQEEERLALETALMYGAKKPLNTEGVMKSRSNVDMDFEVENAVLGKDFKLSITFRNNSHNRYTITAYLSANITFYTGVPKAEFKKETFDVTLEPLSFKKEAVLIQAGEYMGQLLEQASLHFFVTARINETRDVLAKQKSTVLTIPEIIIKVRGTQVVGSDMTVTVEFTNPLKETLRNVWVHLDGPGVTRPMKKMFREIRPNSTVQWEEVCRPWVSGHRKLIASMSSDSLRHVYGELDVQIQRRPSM
UniProt Q96EK7: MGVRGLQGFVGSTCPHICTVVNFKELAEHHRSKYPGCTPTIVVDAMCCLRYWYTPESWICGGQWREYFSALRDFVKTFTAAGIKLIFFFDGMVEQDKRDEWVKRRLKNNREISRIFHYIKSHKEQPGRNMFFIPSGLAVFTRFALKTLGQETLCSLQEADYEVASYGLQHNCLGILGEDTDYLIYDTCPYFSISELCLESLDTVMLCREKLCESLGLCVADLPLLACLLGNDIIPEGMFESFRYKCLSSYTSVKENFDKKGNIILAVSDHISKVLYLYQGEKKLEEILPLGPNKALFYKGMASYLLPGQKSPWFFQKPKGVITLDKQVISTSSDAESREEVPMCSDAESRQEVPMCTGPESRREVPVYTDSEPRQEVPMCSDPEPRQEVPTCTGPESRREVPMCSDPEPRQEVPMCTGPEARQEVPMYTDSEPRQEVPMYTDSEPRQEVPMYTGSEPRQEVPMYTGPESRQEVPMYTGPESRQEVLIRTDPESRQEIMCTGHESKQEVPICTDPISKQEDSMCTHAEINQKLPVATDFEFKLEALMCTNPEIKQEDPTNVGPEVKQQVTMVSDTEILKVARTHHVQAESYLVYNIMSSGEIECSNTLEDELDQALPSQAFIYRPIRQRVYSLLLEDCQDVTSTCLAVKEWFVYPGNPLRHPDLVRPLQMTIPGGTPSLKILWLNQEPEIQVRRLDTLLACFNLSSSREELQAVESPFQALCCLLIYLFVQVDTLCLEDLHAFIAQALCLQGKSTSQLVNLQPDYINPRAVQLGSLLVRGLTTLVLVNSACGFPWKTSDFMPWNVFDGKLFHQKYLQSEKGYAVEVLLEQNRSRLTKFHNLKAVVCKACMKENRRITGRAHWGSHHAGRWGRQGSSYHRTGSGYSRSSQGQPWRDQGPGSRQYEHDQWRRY

Key:
Test in all cases: log2 fold change, soluble protein after heating vs DMSO (PISA); higher = thermal stabilisation; K562 cells, 10 uM, 30 min; active = over 0.2 and 3.5 SD of the protein, either way, in both replicates (recomputed)
[1] = compound: CC1=C(C=C(C=C1)NC(=O)C2=CC(=CC=C2)N(C)C)NC(=O)C3=CC=C(C=C3)O
How it was run: (§1)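 K562 cells at 2×10^6 cells/mL were treated with 10 μM compound for 30 min. Aliquots were heated for 3 min across 48°C-58°C, pooled, and extracted in PBS with 0.5% NP-40 at 4°C; soluble protein was the supernatant after 21,000xg for 90 min. Soluble protein was quantified by TMTpro 16plex LC-MS/MS with channel sums equalised, and reported as log2 fold change in thermal stability against DMSO controls, with values from duplicates.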

[2] = compound: CC1=CC=C(C=C1)SC2=C3C=C(SC3=CN=C2)C(=O)N
How it was run: as §1

[3] = compound: CC1=NC(=CC=C1)C2=C(N=C(N2)C(C)(C)C)C3=CC4=NC=CN=C4C=C3
How it was run: as §1

[4] = compound: CCCCN(Cc1ccc(C(=O)NO)cc1)C(=O)Nc1ccccc1 [Nexturastat A]
How it was run: as §1

[5] = compound: CCCS(=O)(=O)Nc1ccc(F)c(C(=O)c2c[nH]c3ncc(Cl)cc23)c1F
How it was run: as §1

[6] = compound: CCCc1cc(C)[nH]c(=O)c1CNC(=O)c1cc(-c2ccnc(N3CCN(C)CC3)c2)cc2c1cnn2C(C)C
How it was run: as §1

[7] = compound: CCN(CC)Cc1ccc2cc(COC(=O)Nc3ccc(C(=O)NO)cc3)ccc2c1 [givinostat]
How it was run: as §1

[8] = compound: CCN(CCCOc1ccc2c(Nc3cc(CC(=O)Nc4cccc(F)c4)[nH]n3)ncnc2c1)CCOP(=O)(O)O [barasertib]
How it was run: as §1

[9] = compound: CC1=C(C=C(C=C1)NC(=O)C2=CC(=CC=C2)C(C)(C)C#N)NC3=CC4=C(C=C3)N=CN(C4=O)C
How it was run: as §1

[10] = compound: CCCS(=O)(=O)Nc1ccc(F)c(C(=O)c2c[nH]c3ncc(-c4ccc(Cl)cc4)cc23)c1F [vemurafenib]
How it was run: as §1

Measured: log2 fold change

FAHD2B (UniProt Q6P2I3)
inactive: [1] 0.007 | [2] 0.087 | [3] -0.029 | [4] 0.114 | [5] 0.188 | [6] 0.117 | [7] 0.004 | [8] -0.069

FAM135A (UniProt Q9P2D6)
inactive: [9] -0.178 | [10] -0.042 | [7] 0.131
active: [4] 0.5

ERI3 (UniProt H0Y4B0)
inactive: [9] -0.142 | [4] 0.098 | [7] 0.209 | [8] 0.275

ERO1B (UniProt Q86YB8)
inactive: [9] -0.107 | [2] -0.08 | [3] -0.071 | [4] -0.006 | [10] -0.109 | [5] -0.11 | [6] 0.194 | [7] 0.018 | [8] -0.083

Taken from above (two entries):
FAM135A (UniProt Q9P2D6)
inactive: [9] -0.178 | [10] -0.042 | [7] 0.131
active: [4] 0.5

ERI3 (UniProt H0Y4B0)
inactive: [9] -0.142 | [4] 0.098 | [7] 0.209 | [8] 0.275

Continuation.

EXTL3 (UniProt O43909)
inactive: [9] -0.198 | [1] -0.083 | [2] -0.055 | [3] 0.055 | [4] -0.098 | [10] -0.026 | [5] -0.02 | [6] 0.077 | [8] 0.069

ERCC1 isoform 3 (UniProt P07992)
inactive: [9] 0.24 | [1] 0.069 | [2] -0.047 | [5] -0.412

FAM185A (UniProt Q8N0U4)
inactive: [1] -0.046 | [2] -0.034 | [3] -0.15 | [10] -0.069 | [5] -0.062 | [6] -0.034 | [7] 0.107 | [8] 0.014

ERH (UniProt P84090)
inactive: [1] -0.122 | [2] -0.084 | [3] 0.101 | [4] 0.117 | [10] 0.082 | [5] -0.059 | [6] 0 | [7] -0.018 | [8] -0.024

ERI1 (UniProt Q8IV48)
inactive: [1] 0.036 | [3] -0.107 | [4] 0.287 | [10] -0.046 | [6] 0.077

EPG5 (UniProt Q9HCE0)
inactive: [9] -0.069 | [1] -0.043 | [4] -0.073

ERCC6L (UniProt Q2NKX8)
inactive: [9] -0.064 | [1] 0.008 | [2] -0.048 | [3] -0.053 | [4] 0.348 | [10] 0.107 | [5] -0.065 | [8] -0.114

EXD2 (UniProt Q9NVH0)
inactive: [9] -0.088 | [1] 0.047 | [2] 0.061 | [3] -0.021 | [4] 0.221 | [5] 0.055 | [7] 0.094

EPB41L2 isoform 4 (UniProt O43491)
inactive: [9] 0.337 | [2] 0.141 | [3] 0.333 | [4] -0.123 | [5] 0.118 | [6] -0.105 | [8] -0.076

FAM204A (UniProt Q9H8W3)
inactive: [9] -0.278 | [4] -0.036 | [10] -0.168 | [6] 0.069 | [7] -0.061

FAM102B (UniProt Q5T8I3)
inactive: [1] 0.01 | [2] -0.002 | [4] 0.004 | [10] -0.129 | [5] -0.065

FADS1 (UniProt F5GYH4)
inactive: [3] -0.254 | [10] -0.052 | [8] 0.024

FAM171A2 (UniProt A8MVW0)
inactive: [1] -0.228 | [7] -0.024

EVI2B isoform 2 (UniProt P34910)
inactive: [10] 0.034

EPN1 isoform 3 (UniProt Q9Y6I3)
inactive: [8] -0.15

F13B (UniProt P05160)
inactive: [10] 0.059

ESRRB isoform 1 (UniProt O95718)
inactive: [3] 0.197 | [10] 0.229 | [7] -0.206 | [8] -0.004

FAM117B (UniProt Q6P1L5)
inactive: [1] -0.035 | [3] -0.126 | [4] 0.394 | [10] 0.043 | [7] 0.212

EPS8L1 (UniProt Q8TE68)
inactive: [4] 0.006 | [8] 0.077

FAM122B isoform 2 (UniProt Q7Z309)
inactive: [6] 0.035

FAM178B (UniProt Q8IXR5)
inactive: [7] 0.125

FAM114A1 (UniProt Q8IWE2)
inactive: [1] -0.155 | [3] -0.014 | [4] 0.044 | [6] -0.024 | [7] 0.045

EPC1 (UniProt Q9H2F5)
inactive: [1] 0.097 | [6] 0.283

F2R (UniProt P25116)
inactive: [2] 0.256 | [10] -0.042 | [5] 0.199

FAM107B isoform 2 (UniProt Q9H098)
inactive: [4] -0.001 | [10] 0.035

EVA1B (UniProt Q9NVM1)
inactive: [6] -0.004

FAM110A (UniProt Q9BQ89)
inactive: [4] 0.118

EYA3 (UniProt Q99504)
inactive: [10] 0.19 | [6] 0.048

FAM174A (UniProt Q8TBP5)
inactive: [3] -0.275 | [10] -0.177

FADS2 (UniProt O95864)
inactive: [7] -0.177

F13A1 (UniProt P00488)
inactive: [6] -0.082 | [8] -0.23

FAM160A2 isoform 2 (UniProt Q8N612)
inactive: [1] 0.134 | [3] 0.016 | [4] -0.066 | [10] -0.164 | [6] -0.172 | [8] 0.109

EPB41L5 (UniProt Q9HCM4)
inactive: [4] 0.218 | [7] 0.018

Quoted from the entries so far (10 entries):
F2R (UniProt P25116)
inactive: [2] 0.256 | [10] -0.042 | [5] 0.199

FAM107B isoform 2 (UniProt Q9H098)
inactive: [4] -0.001 | [10] 0.035

EVA1B (UniProt Q9NVM1)
inactive: [6] -0.004

FAM110A (UniProt Q9BQ89)
inactive: [4] 0.118

EYA3 (UniProt Q99504)
inactive: [10] 0.19 | [6] 0.048

FAM174A (UniProt Q8TBP5)
inactive: [3] -0.275 | [10] -0.177

FADS2 (UniProt O95864)
inactive: [7] -0.177

F13A1 (UniProt P00488)
inactive: [6] -0.082 | [8] -0.23

FAM160A2 isoform 2 (UniProt Q8N612)
inactive: [1] 0.134 | [3] 0.016 | [4] -0.066 | [10] -0.164 | [6] -0.172 | [8] 0.109

EPB41L5 (UniProt Q9HCM4)
inactive: [4] 0.218 | [7] 0.018

Later entries:

ERMARD (UniProt Q5T6L9)
inactive: [6] -0.001

F9 (UniProt P00740)
inactive: [2] 0.076 | [10] -0.093 | [5] -0.092 | [8] -0.041

FAM120B (UniProt Q96EK7)
inactive: [7] 0.108

FAM171A1 (UniProt Q5VUB5)
inactive: [2] -0.012 | [3] -0.159 | [4] -0.222 | [10] 0.045 | [5] -0.002 | [7] -0.035

FAM160B2 (UniProt Q86V87)
inactive: [6] 0.014

EPHX2 (UniProt E5RI53)
inactive: [4] 0.029 | [8] 0.094

FAAP20 isoform 2 (UniProt Q6NZ36)
inactive: [4] 0.065 | [6] -0.021

FAM126A (UniProt Q9BYI3)
inactive: [1] 0.143 | [4] -0.081 | [6] 0.217 | [7] -0.226

EWSR1 (UniProt H7BY36)
inactive: [2] -0.043 | [4] -0.321 | [10] 0.036 | [5] -0.167 | [6] -0.104 | [7] 0.204 | [8] -0.097

ERICH1 (UniProt Q86X53)
inactive: [2] -0.054 | [3] -0.569 | [5] -0.189

FAM126B (UniProt Q8IXS8)
inactive: [2] 0.134 | [5] -0.028

ERAP2 (UniProt Q6P179)
inactive: [2] -0.019 | [4] -0.256 | [5] -0.119 | [6] -0.021 | [7] -0.008
